From patent US20250283871A1, “COMPOSITIONS AND METHODS FOR MODULATING THE INTERACTION BETWEEN SS18-SSX FUSION ONCOPROTEIN AND NUCLEOSOMES” (Dana-Farber Cancer Institute, Inc., priority 2020, published 2025)

B1: DHCR7 (protein, UniProt Q9UBM7 1-475, looked up)
7-dehydrocholesterol reductase: MAAKSQPNIPKAKSLDGVTNDRTASQGQWGRAWEVDWFSLASVIFLLLFAPFIVYYFIMACDQYSCALTGPVVDIVTGHARLSDIWAKTPPITRKAAQLYTLWVTFQVLLYTSLPDFCHKFLPGYVGGIQEGAVTPAGVVNKYQINGLQAWLLTHLLWFANAHLLSWFSPTIIFDNWIPLLWCANILGYAVSTFAMVKGYFFPTSARDCKFTGNFFYNYMMGIEFNPRIGKWFDFKLFFNGRPGIVAWTLINLSFAAKQRELHSHVTNAMVLVNVLQAIYVIDFFWNETWYLKTIDICHDHFGWYLGWGDCVWLPYLYTLQGLYLVYHPVQLSTPHAVGVLLLGLVGYYIFRVANHQKDLFRRTDGRCLIWGRKPKVIECSYTSADGQRHHSKLLVSGFWGVARHFNYVGDLMGSLAYCLACGGGHLLPYFYIIYMAILLTHRCLRDEHRCASKYGRDWERYTAAVPYRLLPGIF
B2: WDR6 (protein, UniProt Q9NNW5 1-1121, looked up)
tRNA …: MDALEDYVWPRATSELILLPVTGLECVGDRLLAGEGPDVLVYSLDFGGHLRMIKRVQNLLGHYLIHGFRVRPEPNGDLDLEAMVAVFGSKGLRVVKISWGQGHFWELWRSGLWNMSDWIWDARWLEGNIALALGHNSVVLYDPVVGCILQEVPCTDRCTLSSACLIGDAWKELTIVAGAVSNQLLVWYPATALADNKPVAPDRRISGHVGIIFSMSYLESKGLLATASEDRSVRIWKVGDLRVPGGRVQNIGHCFGHSARVWQVKLLENYLISAGEDCVCLVWSHEGEILQAFRGHQGRGIRAIAAHERQAWVITGGDDSGIRLWHLVGRGYRGLGVSALCFKSRSRPGTLKAVTLAGSWRLLAVTDTGALYLYDVEVKCWEQLLEDKHFQSYCLLEAAPGPEGFGLCAMANGEGRVKVVPINTPTAAVDQTLFPGKVHSLSWALRGYEELLLLASGPGGVVACLEISAAPSGKAIFVKERCRYLLPPSKQRWHTCSAFLPPGDFLVCGDRRGSVLLFPSRPGLLKDPGVGGKARAGAGAPVVGSGSSGGGNAFTGLGPVSTLPSLHGKQGVTSVTCHGGYVYTTGRDGAYYQLFVRDGQLQPVLRQKSCRGMNWLAGLRIVPDGSMVILGFHANEFVVWNPRSHEKLHIVNCGGGHRSWAFSDTEAAMAFAYLKDGDVMLYRALGGCTRPHVILREGLHGREITCVKRVGTITLGPEYGVPSFMQPDDLEPGSEGPDLTDIVITCSEDTTVCVLALPTTTGSAHALTAVCNHISSVRAVAVWGIGTPGGPQDPQPGLTAHVVSAGGRAEMHCFSIMVTPDPSTPSRLACHVMHLSSHRLDEYWDRQRNRHRMVKVDPETRYMSLAVCELDQPGLGPLVAAACSDGAVRLFLLQDSGRILQLLAETFHHKRCVLKVHSFTHEAPNQRRRLLLCSAATDGSLAFWDLTTMLDHDSTVLEPPVDPGLPYRLGTPSLTLQAHSCGINSLHTLPTREGHHLVASGSEDGSLHVFVLAVEMLQLEEAVGEAGLVPQLRVLEEYSVPCAHAAHVTGLKILSPSIMVSASIDQRLTFWRLGHGEPTFMNSTVFHVPDVADMDCWPVSPEFGHRCALGGQGLEVYNWYD
B3: NUBPL (protein, UniProt Q8TB37 39-319, looked up)
Iron-sulfur cluster transfer …: GAGSETLKQRRTQIMSRGLPKQKPIEGVKQVIVVASGKGGVGKSTTAVNLALALAANDSSKAIGLLDVDVYGPSVPKMMNLKGNPELSQSNLMRPLLNYGIACMSMGFLVEESEPVVWRGLMVMSAIEKLLRQVDWGQLDYLVVDMPPGTGDVQLSVSQNIPITGAVIVSTPQDIALMDAHKGAEMFRRVHVPVLGLVQNMSVFQCPKCKHKTHIFGADGARKLAQTLGLEVLGDIPLHLNIREASDTGQPIVFSQPESDEAKAYLRIAVEVVRRLPSPSE
B4: ILVBL (protein, UniProt A1L0T0 1-632, looked up)
2-hydroxyacyl-CoA lyase 2: METPAAAAPAGSLFPSFLLLACGTLVAALLGAAHRLGLFYQLLHKVDKASVRHGGENVAAVLRAHGVRFIFTLVGGHISPLLVACEKLGIRVVDTRHEVTAVFAADAMARLSGTVGVAAVTAGPGLTNTVTAVKNAQMAQSPILLLGGAASTLLQNRGALQAVDQLSLFRPLCKFCVSVRRVRDIVPTLRAAMAAAQSGTPGPVFVELPVDVLYPYFMVQKEMVPAKPPKGLVGRVVSWYLENYLANLFAGAWEPQPEGPLPLDIPQASPQQVQRCVEILSRAKRPLMVLGSQALLTPTSADKLRAAVETLGVPCFLGGMARGLLGRNHPLHIRENRSAALKKADVIVLAGTVCDFRLSYGRVLSHSSKIIIVNRNREEMLLNSDIFWKPQEAVQGDVGSFVLKLVEGLQGQTWAPDWVEELREADRQKEQTFREKAAMPVAQHLNPVQVLQLVEETLPDNSILVVDGGDFVGTAAHLVQPRGPLRWLDPGAFGTLGVGAGFALGAKLCRPDAEVWCLFGDGAFGYSLIEFDTFVRHKIPVMALVGNDAGWTQISREQVPSLGSNVACGLAYTDYHKAAMGLGARGLLLSRENEDQVVKVLHDAQQQCRDGHPVVVNILIGRTDFRDGSIAV
B5: TMCO1 (protein, UniProt Q9UM00 1-239, looked up)
Calcium load-activated …: MPRKRKCDLRAVRVGLLLGGGGVYGSRFRFTFPGCRALSPWRVRVQRRRCEMSTMFADTLLIVFISVCTALLAEGITWVLVYRTDKYKRLKAEVEKQSKKLEKKKETITESAGRQQKKKIERQEEKLKNNNRDLSMVRMKSMFAIGFCFTALMGMFNSIFDGRVVAKLPFTPLSYIQGLSHRNLLGDDTTDCSFIFLYILCTMSIRQNIQKILGLAPSRAATKQAGGFLGPPPPSGKFS
B6: SLC25A19 (protein, UniProt Q9HC21 1-320, looked up)
Mitochondrial thiamine …: MVGYDPKPDGRNNTKFQVAVAGSVSGLVTRALISPFDVIKIRFQLQHERLSRSDPSAKYHGILQASRQILQEEGPTAFWKGHVPAQILSIGYGAVQFLSFEMLTELVHRGSVYDAREFSVHFVCGGLAACMATLTVHPVDVLRTRFAAQGEPKVYNTLRHAVGTMYRSEGPQVFYKGLAPTLIAIFPYAGLQFSCYSSLKHLYKWAIPAEGKKNENLQNLLCGSGAGVISKTLTYPLDLFKKRLQVGGFEHARAAFGQVRRYKGLMDCAKQVLQKEGALGFFKGLSPSLLKAALSTGFMFFSYEFFCNVFHCMNRTASQR
B7: TIMM29 (protein, UniProt Q9BSF4 32-260, looked up)
Mitochondrial import inner …: GSWARALLRDYAEACRDASAEARARPGRAAVYVGLLGGAAACFTLAPSEGAFEEALLEASGTLLLLAPATRNRESEAFVQRLLWLRGRGRLRYVNLGLCSLVYEAPFDAQASLYQARCRYLQPRWTDFPGRVLDVGFVGRWWVLGAWMRDCDINDDEFLHLPAHLRVVGPQQLHSETNERLFDEKYKPVVLTDDQVDQALWEEQVLQKEKKDRLALSQAHSLVQAEAPR
B8: TIMM23 (protein, UniProt O14925 1-209, looked up)
Mitochondrial import inner …: MEGGGGSGNKTTGGLAGFFGAGGAGYSHADLAGVPLTGMNPLSPYLNVDPRYLVQDTDEFILPTGANKTRGRFELAFFTIGGCCMTGAAFGAMNGLRLGLKETQNMAWSKPRNVQILNMVTRQGALWANTLGSLALLYSAFGVIIEKTRGAEDDLNTVAAGTMTGMLYKCTGGLRGIARGGLTGLTLTSLYALYNNWEHMKGSLLQQSL
B9: USP30 (protein, UniProt Q70CQ3 1-517, looked up)
Ubiquitin carboxyl-terminal …: MLSSRAEAAMTAADRAIQRFLRTGAAVRYKVMKNWGVIGGIAAALAAGIYVIWGPITERKKRRKGLVPGLVNLGNTCFMNSLLQGLSACPAFIRWLEEFTSQYSRDQKEPPSHQYLSLTLLHLLKALSCQEVTDDEVLDASCLLDVLRMYRWQISSFEEQDAHELFHVITSSLEDERDRQPRVTHLFDVHSLEQQSEITPKQITCRTRGSPHPTSNHWKSQHPFHGRLTSNMVCKHCEHQSPVRFDTFDSLSLSIPAATWGHPLTLDHCLHHFISSESVRDVVCDNCTKIEAKGTLNGEKVEHQRTTFVKQLKLGKLPQCLCIHLQRLSWSSHGTPLKRHEHVQFNEFLMMDIYKYHLLGHKPSQHNPKLNKNPGPTLELQDGPGAPTPVLNQPGAPKTQIFMNGACSPSLLPTLSAPMPFPLPVVPDYSSSTYLFRLMAVVVHHGDMHSGHFVTYRRSPPSARNPLSTSNQWLWVSDDTVRKASLQEVLSSSAYLLFYERVLSRMQHQSQECKSEE
B10: CDS2 (protein, UniProt O95674 1-445, looked up)
Phosphatidate …: MTELRQRVAHEPVAPPEDKESESEAKVDGETASDSESRAESAPLPVSADDTPEVLNRALSNLSSRWKNWWVRGILTLAMIAFFFIIIYLGPMVLMIIVMCVQIKCFHEIITIGYNVYHSYDLPWFRTLSWYFLLCVNYFFYGETVTDYFFTLVQREEPLRILSKYHRFISFTLYLIGFCMFVLSLVKKHYRLQFYMFGWTHVTLLIVVTQSHLVIHNLFEGMIWFIVPISCVICNDIMAYMFGFFFGRTPLIKLSPKKTWEGFIGGFFATVVFGLLLSYVMSGYRCFVCPVEYNNDTNSFTVDCEPSDLFRLQEYNIPGVIQSVIGWKTVRMYPFQIHSIALSTFASLIGPFGGFFASGFKRAFKIKDFANTIPGHGGIMDRFDCQYLMATFVNVYIASFIRGPNPSKLIQQFLTLRPDQQLHIFNTLRSHLIDKGMLTSTTEDE
B11: GNAS (protein, UniProt P63092 2-394, looked up)
Guanine nucleotide-binding …: GCLGNSKTEDQRNEEKAQREANKKIEKQLQKDKQVYRATHRLLLLGAGESGKSTIVKQMRILHVNGFNGEGGEEDPQAARSNSDGEKATKVQDIKNNLKEAIETIVAAMSNLVPPVELANPENQFRVDYILSVMNVPDFDFPPEFYEHAKALWEDEGVRACYERSNEYQLIDCAQYFLDKIDVIKQADYVPSDQDLLRCRVLTSGIFETKFQVDKVNFHMFDVGGQRDERRKWIQCFNDVTAIIFVVASSSYNMVIREDNQTNRLQEALNLFKSIWNNRWLRTISVILFLNKQDLLAEKVLAGKSKIEDYFPEFARYTTPEDATPEPGEDPRVTRAKYFIRDEFLRISTASGDGRHYCYPHFTCAVDTENIRRVFNDCRDIIQRMHLRQYELL

Test system: BAF complex subunits and histone proteins
Assay: Mass spectrometry proteomics of purified HA-SS18 WT and HA-SS18-SSX1 complexes (Tables 5A-5E)
Parameters: species or system human
[1] = HA-SS18SSX1_NE_peptides: protein co-purified with HA-SS18-SSX1 BAF complexes from soluble nuclear extract (NE), HEK-293T cells
[2] = HA-SS18WT_NE_peptides: proteins co-purified with HA-SS18 WT from nuclear extract (NE), HEK-293T
[3] = HA-SS18WT_NE_peptides: HA-SS18 WT complexes purified from nuclear extract (NE), HEK-293T, label = protein identified (Gene Symbol)

| Molecule | Total (peptides) [1] | Unique (peptides) [1] | Total (peptides) [2] | Unique (peptides) [2] | Total (peptides) [3] | Unique (peptides) [3] |
| --- | --- | --- | --- | --- | --- | --- |
| B1 | 3 | 2 | 2 | 2 |  |  |
| B2 | 2 | 2 | 2 | 2 |  |  |
| B3 | 2 | 2 |  |  | 2 | 2 |
| B4 | 2 | 2 |  |  | 5 | 5 |
| B5 | 3 | 2 |  |  | 4 | 3 |
| B6 | 3 | 3 | 2 | 2 |  |  |
| B7 | 2 | 2 |  |  |  |  |
| B8 | 3 | 2 | 1 | 1 |  |  |
| B9 | 2 | 2 |  |  |  |  |
| B10 | 3 | 2 |  |  | 2 | 2 |
| B11 | 3 | 3 |  |  |  |  |
